Source: patent publication US7585977B2, “Selective estrogen receptor modulators containing a phenylsulfonyl group” (Eli Lilly and Company, priority 2005, dated 2009)
Some results were stated once for a whole list of compounds, not compound by compound.

Key:
[1] = system: mature (9-10 week old) F344 female rats; assay: 10-Day Rat Hormone (Ovarian Stimulation) Screen; format: in vivo; settings: oral gavage 10 days, serum about 2 hours after the 10th dose, RIA
[2] = system: Ishikawa human endometrial tumor cells; assay: Ishikawa Cell Proliferation Assay, agonist mode (alkaline phosphatase readout); format: cell-based; settings: compound alone
[3] = system: immature (3 week old) female rats; assay: 3-Day Rat Uterus Antagonist Assay; format: in vivo; settings: 1.0 mg/kg oral, 3 days, with E2 0.1 mg/kg

SMILES	circulating LH levels [1]	circulating estradiol levels [1]	stimulation in the agonist mode compared with tamoxifen [2]	inhibition of the estrogen-induced response (uterine weight/body weight ratio) [3]
CCS(=O)(=O)c1ccc(-c2ccc3cc(O)ccc3c2Oc2ccc(OCCN3CCCCC3)cc2)cc1.Cl [Example 14, 6-(4-Ethanesulfonyl-phenyl)-5-[4-(2-piperidin-1-yl-ethoxy)-phenoxy]-naphthalen-2-ol Hydrochloride]	did not significantly elevate	did not significantly elevate	less stimulatory than tamoxifen	inhibit the estrogen-induced response
Cl.O=S(=O)(c1ccc(-c2ccc3cc(O)ccc3c2Oc2ccc(OCCN3CCCCC3)cc2)cc1)C1CC1 [Example 103, 6-(4-Cyclopropanesulfonyl-phenyl)-5-[4-(2-piperidin-1-yl-ethoxy)-phenoxy]-naphthalen-2-ol Hydrochloride]	did not significantly elevate	did not significantly elevate	less stimulatory than tamoxifen	inhibit the estrogen-induced response
CC(C)(C)C(=O)Oc1ccc2c(Oc3ccc(OCCN4CCCCC4)cc3)c(-c3ccc(S(C)(=O)=O)cc3)ccc2c1.Cl [Example 5, 2,2-Dimethyl-propionic Acid 6-(4-methanesulfonyl-phenyl)-5-[4-(2-piperidin-1-yl-ethoxy)-phenoxy]-naphthalen-2-yl ester Hydrochloride]	did not significantly elevate	did not significantly elevate	less stimulatory than tamoxifen	inhibit the estrogen-induced response
CS(=O)(=O)c1ccc(-c2ccc3cc(O)ccc3c2Oc2ccc(NCCN3CCCCC3)cc2)cc1.Cl.Cl [Example 58, 6-(4-Methanesulfonyl-phenyl)-5-[4-(2-piperidin-1-yl-ethylamino)-phenoxy]-naphthalen-2-ol Dihydrochloride]	–	–	less stimulatory than tamoxifen	inhibit the estrogen-induced response
CS(=O)(=O)c1ccc(-c2ccc3cc(O)ccc3c2Oc2ccc(OCCN3CCCCC3)cc2)c(Cl)c1Cl.Cl [Example 34, 6-(2,3-Dichloro-4-methanesulfonyl-phenyl)-5-[4-(2-piperidin-1-yl-ethoxy)-phenoxy]-naphthalen-2-ol Hydrochloride]	–	–	less stimulatory than tamoxifen	inhibit the estrogen-induced response
CS(=O)(=O)c1ccc(-c2ccc3cc(O)ccc3c2Oc2ccc(NCCN3CCCCCC3)cc2)cc1.Cl.Cl [Example 59, 5-[4-(2-Azepin-1-yl-ethylamino)-phenoxy]-6-(4-methanesulfonyl-phenyl)-naphthalen-2-ol Dihydrochloride]	–	–	less stimulatory than tamoxifen	inhibit the estrogen-induced response
Cc1cc(-c2ccc3cc(O)ccc3c2Oc2ccc(OCCN3CCCCC3)cc2)cc(C)c1S(C)(=O)=O.Cl [Example 99, 6-(3,5-Dimethyl-4-methylsulfonyl-phenyl)-5-[4-(2-piperidin-1-yl-ethoxy)-phenoxy]-naphthalen-2-ol Hydrochloride]	–	–	less stimulatory than tamoxifen	inhibit the estrogen-induced response
CS(=O)(=O)c1ccc(-c2ccc3cc(OC(=O)c4ccccc4)ccc3c2Oc2ccc(OCCN3CCCCC3)cc2)cc1.Cl [Example 6, Benzoic acid 6-(4-methanesulfonyl-phenyl)-5-[4-(2-piperidin-1-yl-ethoxy)-phenoxy]-naphthalen-2-yl ester Hydrochloride]	did not significantly elevate	did not significantly elevate	less stimulatory than tamoxifen	inhibit the estrogen-induced response
Cc1cc(S(C)(=O)=O)ccc1-c1ccc2cc(O)ccc2c1Oc1ccc(OCCN2CCCCC2)cc1.O=C(O)C(F)(F)F [Example 46, 6-(4-Methanesulfonyl-2-methyl-phenyl)-5-[4-(2-piperidin-1-yl-ethoxy)-phenoxy]-naphthalen-2-ol Trifluoroacetate]	–	–	less stimulatory than tamoxifen	inhibit the estrogen-induced response
O=C(O)C(F)(F)F.O=S1(=O)C=Cc2cc(-c3ccc4cc(O)ccc4c3Oc3ccc(OCCN4CCCCC4)cc3)ccc21 [Example 53, 6-(1,1-Dioxo-1H-1λ^6-benzo[b]thiophen-5-yl)-5-[4-(2-piperidin-1-yl-ethoxy)-phenoxy]-naphthalen-2-ol Trifluoroacetate]	–	–	less stimulatory than tamoxifen	inhibit the estrogen-induced response
CS(=O)(=O)c1ccc(-c2ccc3cc(O)ccc3c2Oc2ccc(OCCN3CCCCC3)cc2)cc1Cl [Example 29, 6-(3-Chloro-4-methanesulfonyl-phenyl)-5-[4-(2-piperidin-1-yl-ethoxy)-phenoxy]-naphthalen-2-ol]	–	–	less stimulatory than tamoxifen	inhibit the estrogen-induced response
CC(C)S(=O)(=O)c1ccc(-c2ccc3cc(O)ccc3c2Oc2ccc(OCCN3CCCCC3)cc2)cc1.Cl [Example 43, 5-[4-(2-Piperidin-1-yl-ethoxy)-phenoxy]-6-[4-(propane-2-sulfonyl)-phenyl]-naphthalen-2-ol Hydrochloride]	–	–	less stimulatory than tamoxifen	inhibit the estrogen-induced response
Cl.O=S(=O)(c1ccc(-c2ccc3cc(O)ccc3c2Oc2ccc(OCCN3CCCCC3)cc2)cc1)C(F)(F)F [Example 21, 5-[4-(2-Piperidin-1-yl-ethoxy)-phenoxy]-6-(4-trifluoromethanesulfonyl-phenyl)-naphthalen-2-ol Hydrochloride]	did not significantly elevate	did not significantly elevate	less stimulatory than tamoxifen	inhibit the estrogen-induced response
CS(=O)(=O)c1ccc(-c2sc3cc(O)ccc3c2Oc2ccc(OCCN3CCCCC3)cc2)cc1.Cl [Example 92, 2-(4-Methanesulfonyl-phenyl)-3-[4-(2-piperidin-1-yl-ethoxy)-phenoxy]-benzo[b]thiophen-6-ol Hydrochloride]	–	–	less stimulatory than tamoxifen	inhibit the estrogen-induced response
CN(C)S(=O)(=O)c1ccc(-c2ccc3cc(O)ccc3c2Oc2ccc(OCCN3CCCCC3)cc2)cc1.Cl [Example 65, 4-{6-Hydroxy-1-[4-(2-piperidin-1-yl-ethoxy)-phenoxy]-naphthalen-2-yl}-N,N-dimethyl-benzenesulfonamide Hydrochloride]	–	–	less stimulatory than tamoxifen	inhibit the estrogen-induced response
CS(=O)(=O)c1ccc(-c2ccc3cc(O)ccc3c2Oc2ccc(OCCN3CCCCC3)cc2)cc1C(F)(F)F.Cl [Example 32, 6-(4-Methanesulfonyl-3-trifluoromethyl-phenyl)-5-[4-(2-piperidin-1-yl-ethoxy)-phenoxy]-naphthalen-2-ol Hydrochloride]	–	–	less stimulatory than tamoxifen	inhibit the estrogen-induced response
